Measurements taken from US12264163B2, “Compounds and methods for treating fibrotic pathologies” (Mayo Foundation for Medical Education and Research, priority 2019, dated 2025).

Columns and labels:
αSMA = αSMA intensity (fibroblast activation) in IPF patient-derived lung fibroblasts + TGFβ, dopaminergic agonist library; type: cell-based, human; conditions: 1 μM + TGFβ, 72 hours
Procedure: (§1) Media was then exchanged for the indicated conditions for each experiment. […] Cells or tissue sections were incubated overnight with mouse monoclonal antibody against αSMA (Sigma-Aldrich F3777), and/or a rabbit monoclonal antibody against YAP/TAZ (Cell Signaling D24E4) diluted 1:200 in PBS with 1% BSA. Cells were then washed and exposed to flourescence-conjugated secondary antibodies (Invitrogen) diluted 1:1000 and DAPI (Thermo Fisher Scientific). Images were taken with a Cytation5 (BioTek) microscope. For scoring αSMA positive cells (FIG. 12), an observer blinded to the treatment conditions counted αSMA-positive cells using a visual threshold for bright fibrous staining; a minimum of 200 cells was counted for each condition. YAP/TAZ localization was quantified (FIGS. 6-10, 24-26, and 29-30) using Gen5 (Biotek) software. Images were taken at 4× magnification of both DAPI and YAP/TAZ staining. […] Quantification of double positive (YAP/TAZ and αSMA) cells from lung tissue sections (FIG. 17-21) was performed similarly; however separate thresholds were established for both YAP/TAZ and αSMA. A minimum of 4000 cells was quantified for each mouse.

YAP/TAZ = YAP/TAZ nuclear localization in IPF patient-derived lung fibroblasts treated with dopaminergic agonists; type: cell-based, human; conditions: 10 μM, 2 hours
Procedure: IPF patient-derived lung fibroblasts cells treated 2 hours prior to fixation with diverse dopaminergic agonists (10 μM). N=4 different patient samples. % nuclear localization of YAP/TAZ was determined using automated imaging software. Scale bar represents 100 μm.
as §1

## CCCN1CCC[C@@H]2Cc3n[nH]cc3C[C@H]21.Cl [(−)-Quinpirole•HCl, (−)-Quinpirole]
αSMA; IPF-1 patient fibroblasts
  αSMA intensity (% of DMSO control): 84.61 % of DMSO control
αSMA; IPF-2 patient fibroblasts
  αSMA intensity (% of DMSO control): 67.1295 % of DMSO control
αSMA; IPF-3 patient fibroblasts
  αSMA intensity (% of DMSO control): 85.41 % of DMSO control
αSMA; IPF-4 patient fibroblasts
  αSMA intensity (% of DMSO control): 95.1307 % of DMSO control
YAP/TAZ; IPF-1 patient fibroblasts
  Nuclear localization (% of total cells): 80.12 % of total cells
YAP/TAZ; IPF-2 patient fibroblasts
  Nuclear localization (% of total cells): 73.15 % of total cells
YAP/TAZ; IPF-3 patient fibroblasts
  Nuclear localization (% of total cells): 80.54 % of total cells
YAP/TAZ; IPF-4 patient fibroblasts
  Nuclear localization (% of total cells): 68.54 % of total cells
